PubChem BioAssay AID1259254 | NCATS | 2017
Screen: 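Genome-wide screen for genes that prevent DNA re-replication in cancer cells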 (primary screen). Cell system: human HCT116 colorectal cancer cells. Reagent: single siRNA against human genes. Timing: 3 days. Measured: 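Imaged Hoechst DNA stain sorts each cell into a cycle phase by DNA amount; per plate, G2 fraction set to 0% for non-targeting and 100% for GMNN siRNA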. Direction: G2 robust z-score and G2 cells, % of GMNN control: higher = more G2 cells, more excess DNA replication; raw share of cells in G2: higher = larger share of cells with G2 DNA content. Rule for the call: 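An siRNA counts as active if its G2 robust z-score lies at least 5 MADs above the screen median; here such calls match roughly 38% of GMNN control or more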.
This is an unselected part of about 59,000 reagents. Over the whole deposit, about 1,550 (2.6%) got an active call. 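G2 share is only a proxy for re-replication; each gene was hit by three separate siRNAs, and active genes were retested.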 Raw values are not corrected between plates. Reagents against one gene are numbered here. Reagent sequences are not shown. Not given: the amount of reagent.

Gene | reagent no. | G2 robust z-score | G2 cells, % of GMNN control | raw share of cells in G2 (%) | call
COPS2 | 1 | 7.24 | 53.9 | 24 | active
COPS2 | 2 | 4.17 | 32.3 | 16.6 | inactive
COPS2 | 3 | -0.117 | 2.14 | 5.51 | inactive
GSC | 1 | -0.251 | 1.2 | 5.2 | inactive
GSC | 2 | 7.94 | 58.9 | 26.2 | active
GSC | 3 | -0.292 | 0.909 | 6.39 | inactive
NDUFA8 | 1 | 8.07 | 59.7 | 29.1 | active
NDUFA8 | 2 | -0.483 | -0.431 | 5.19 | inactive
NDUFA8 | 3 | 0.503 | 6.51 | 5.34 | inactive
PLEKHH2 | 1 | -0.559 | -0.967 | 3.81 | inactive
PLEKHH2 | 2 | 1.54 | 13.8 | 7.49 | inactive
PLEKHH2 | 3 | -0.59 | -1.18 | 2.15 | inactive
SCRT1 | 1 | 0.57 | 6.98 | 7.37 | inactive
SCRT1 | 2 | 0.786 | 8.5 | 8.97 | inactive
SCRT1 | 3 | -0.891 | -3.3 | 3 | inactive
PHLDA1 | 1 | 1.71 | 15 | 10.9 | inactive
PHLDA1 | 2 | -0.963 | -3.81 | 2.56 | inactive
PHLDA1 | 3 | 1.35 | 12.5 | 7.84 | inactive
TRAF3IP2-AS1 | 1 | 1.16 | 11.1 | 6.38 | inactive
TRAF3IP2-AS1 | 2 | 0.707 | 7.94 | 6.66 | inactive
TRAF3IP2-AS1 | 3 | -0.664 | -1.71 | 2.66 | inactive
BRWD1 | 1 | 0.549 | 6.83 | 5.45 | inactive
BRWD1 | 2 | 0.828 | 8.79 | 6.75 | inactive
BRWD1 | 3 | 0.153 | 4.04 | 5.97 | inactive
DGCR2 | 1 | -0.938 | -3.63 | 3.69 | inactive
DGCR2 | 2 | -0.502 | -0.565 | 3.71 | inactive
DGCR2 | 3 | 0.00782 | 3.02 | 4.51 | inactive
ITIH3 | 1 | -0.411 | 0.0724 | 5.71 | inactive
ITIH3 | 2 | -1.34 | -6.45 | 1.84 | inactive
ITIH3 | 3 | -1.44 | -7.19 | 2.43 | inactive
SELENOO | 1 | 0.679 | 7.75 | 7 | inactive
SELENOO | 2 | -0.277 | 1.02 | 5.85 | inactive
SELENOO | 3 | -0.927 | -3.55 | 3.47 | inactive
FOXO3 | 1 | -0.608 | -1.31 | 4.76 | inactive
FOXO3 | 2 | -0.957 | -3.76 | 3.83 | inactive
FOXO3 | 3 | -0.525 | -0.726 | 3.4 | inactive
TUFM | 1 | 1.24 | 11.7 | 8.6 | inactive
TUFM | 2 | -1.17 | -5.25 | 3.38 | inactive
TUFM | 3 | 0.36 | 5.5 | 6.29 | inactive
CIRSR | 1 | -0.685 | -1.85 | 2.91 | inactive
CIRSR | 2 | -0.883 | -3.24 | 4.54 | inactive
CIRSR | 3 | 0.753 | 8.27 | 6.8 | inactive
TMEM170A | 1 | -0.0767 | 2.43 | 5.06 | inactive
TMEM170A | 2 | -1.16 | -5.17 | 1.79 | inactive
TMEM170A | 3 | -0.738 | -2.23 | 1.17 | inactive
MAB21L3 | 1 | 0.183 | 4.25 | 5.78 | inactive
MAB21L3 | 2 | 2.09 | 17.7 | 8.71 | inactive
MAB21L3 | 3 | -0.658 | -1.66 | 1.98 | inactive
HOPX | 1 | -0.645 | -1.57 | 3.59 | inactive
HOPX | 2 | -0.413 | 0.0623 | 3.48 | inactive
HOPX | 3 | -0.775 | -2.49 | 1.65 | inactive
LMBRD1 | 1 | -0.238 | 1.29 | 5.02 | inactive
LMBRD1 | 2 | 0.242 | 4.67 | 6.07 | inactive
LMBRD1 | 3 | 2.87 | 23.1 | 10.5 | inactive
KRTAP24-1 | 1 | -0.135 | 2.01 | 4.41 | inactive
KRTAP24-1 | 2 | 0.307 | 5.12 | 5.12 | inactive
KRTAP24-1 | 3 | 3.38 | 26.7 | 10.9 | inactive
RNF20 | 1 | -0.644 | -1.57 | 3.73 | inactive
RNF20 | 2 | 1.53 | 13.7 | 11 | inactive
RNF20 | 3 | 1.17 | 11.2 | 6.57 | inactive
ASB14 | 1 | 6.26 | 47 | 19.6 | active
ASB14 | 2 | 1.15 | 11 | 6.32 | inactive
ASB14 | 3 | -0.344 | 0.549 | 3.26 | inactive
RAI14 | 1 | 0.0957 | 3.64 | 5.78 | inactive
RAI14 | 2 | 1.3 | 12.1 | 9.2 | inactive
RAI14 | 3 | -1.03 | -4.31 | 1.79 | inactive
BTRC | 1 | -0.675 | -1.78 | 4.64 | inactive
BTRC | 2 | -0.0693 | 2.48 | 5.66 | inactive
BTRC | 3 | 1.26 | 11.9 | 8.95 | inactive

Laid out differently: entries from further up
Gene,reagent no.,G2 robust z-score,"G2 cells, % of GMNN control",raw share of cells in G2 (%),call
KRTAP24-1,3,3.38,26.7,10.9,inactive
RNF20,1,-0.644,-1.57,3.73,inactive
RNF20,2,1.53,13.7,11,inactive
RNF20,3,1.17,11.2,6.57,inactive
ASB14,1,6.26,47,19.6,active
ASB14,2,1.15,11,6.32,inactive
ASB14,3,-0.344,0.549,3.26,inactive
RAI14,1,0.0957,3.64,5.78,inactive
RAI14,2,1.3,12.1,9.2,inactive
